Data from publication PMC8396335.
Results are given in words; binding and its absence hold for the method and conditions named.

Legend:
[1] = target: T1, AtCOI1 (Arabidopsis thaliana) (UniProt O04197); test: two-hybrid; yeast AH109; McJAZ as prey (pGADT7, AD), McCOI1a or AtCOI1 as bait (pGBKT7, BD); selection medium SD/-Leu/-Trp/-His/-Ade (QDO) containing 35 μM coronatine (COR); 30 °C, 4 days
T1 sequence: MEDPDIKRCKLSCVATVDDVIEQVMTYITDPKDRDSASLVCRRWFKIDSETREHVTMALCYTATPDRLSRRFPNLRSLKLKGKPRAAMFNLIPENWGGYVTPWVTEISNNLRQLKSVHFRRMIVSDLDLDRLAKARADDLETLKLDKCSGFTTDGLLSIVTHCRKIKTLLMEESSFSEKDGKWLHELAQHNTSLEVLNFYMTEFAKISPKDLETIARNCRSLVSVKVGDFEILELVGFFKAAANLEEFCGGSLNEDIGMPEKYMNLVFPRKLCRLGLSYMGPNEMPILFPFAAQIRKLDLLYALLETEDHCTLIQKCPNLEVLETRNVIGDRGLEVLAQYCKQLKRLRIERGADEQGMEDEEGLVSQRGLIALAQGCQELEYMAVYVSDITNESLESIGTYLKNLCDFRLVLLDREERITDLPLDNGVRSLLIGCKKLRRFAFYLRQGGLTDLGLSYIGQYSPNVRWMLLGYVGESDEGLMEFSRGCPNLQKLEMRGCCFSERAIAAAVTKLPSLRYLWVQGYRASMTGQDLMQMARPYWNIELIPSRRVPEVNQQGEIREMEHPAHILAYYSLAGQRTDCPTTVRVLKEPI

[2] = target: T1, AtCOI1 (Arabidopsis thaliana); test: two-hybrid; yeast AH109; McJAZ as prey (pGADT7, AD), McCOI1a or AtCOI1 as bait (pGBKT7, BD); selection medium SD/-Leu/-Trp/-His/-Ade (QDO) plus methanol, without coronatine; 30 °C, 4 days

| binding [1] | binding [2] | Substance |
| --- | --- | --- |
| no binding | no binding | McJAZ3 (Mentha canadensis) |
| no binding | no binding | McJAZ4 (Mentha canadensis) |
| no binding | no binding | McJAZ5 (Mentha canadensis) |
| no binding | no binding | McJAZ6 (Mentha canadensis) |

More lines, now with the values behind:

| Substance | binding [1] | binding [2] |
| --- | --- | --- |
| McJAZ1 (Mentha canadensis) | no binding | no binding |
| McJAZ2 (Mentha canadensis) | no binding | no binding |
| McJAZ7 (Mentha canadensis) | no binding | no binding |
